For 62 substances, growth estimate results are on record in the supplement of paper PMC5949888.

Most values lie at the floor of the assay. Slopes are relative: functional sequences can read slightly below zero. Where only a bound is given, the exact number is not on record here.

The test system of the series is Saccharomyces cerevisiae PS128 hsf1 delta, HSF1(1-493) fusion. Description: growth estimate (transactivation domain function in HSF1 fusion, heat-shock survival) (a.u. (slope of normalised read count over time)); higher = stronger growth at 37°C, i.e. more transactivation activity. As to conditions: library: random library. How it is done: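 Random 60-nt DNA library encoding peptides of up to 20 aa, fused to the C-terminus of yeast HSF1 residues 1-493 (C-terminal TAD deleted) and expressed from the native HSF1 promoter on a CEN plasmid in hsf1-deleted S. cerevisiae PS128. Cells were selected at 37°C on -trp 5-FOA plates for 0, 2, 4, 6 and 8 days and amplicons were sequenced. Growth estimate is the slope of a robust linear fit of total-sum-normalised read counts (normalised to the first time point) over time, using at least 2 replicates. Sequences are classed functional (TAD activity) above a threshold of -0.13, set from stop-codon control sequences.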
With WAKRQTRQTISVRQVGELLR, the growth estimate was less than -0.25.

PHFPTGIRVACVDHSVSPVT: the growth estimate is less than -0.25.

For YGTHHSHKSVY, the growth estimate was less than -0.25.

As to RRPSWPQDRGTFSWSANVLA, the growth estimate is less than -0.25.

Consider RVFVARPPRLRNCIWP, for which the growth estimate is less than -0.25.

For VEDWRTCKNRRFRK, the growth estimate is less than -0.25.

Take SKRLDCWTGNIQMP: the growth estimate is less than -0.25.

Turning to LTCVEAWGTLDH, the growth estimate was less than -0.25.

Take RQSSECVRFHGRLAPRRRTG: the growth estimate was less than -0.25.

With SEWGNHRKVLRA, the growth estimate was less than -0.25.

Take GYNMRLTLASGGNNPVLTNP: the growth estimate is less than -0.25.

As for WVALQLVWRGL, the growth estimate is less than -0.25.

For HTFTHLAQEGCLLLSHVVQI, the growth estimate is less than -0.25.

As to RALLSHYVSAMPLYLVKLRR, the growth estimate was less than -0.25.

Consider AVP, for which the growth estimate is less than -0.25.

As for ERILCTECTSVRSFEITDVQ, the growth estimate was less than -0.25.

On to RTAFSARRGQGHRCAVSMIE, for which the growth estimate was less than -0.25.

Turning to AGLTSISIDIGTLCRILCLL, the growth estimate was less than -0.25.

In the case of KGHRTAPTRR, the growth estimate is less than -0.25.

With WEVLLVMQIVVRVRSRIRLK, the growth estimate was less than -0.25.

LIRVKSGAASRPGRNICSG: the growth estimate is less than -0.25.

For NRPKTSWVKFWDCTRAVASP, the growth estimate is less than -0.25.

As to SRCVCSDAIPGVRFSTPLYL, the growth estimate is less than -0.25.

As to SNLGTVTDHGCSNRDSPVVS, the growth estimate was less than -0.25.

For the substance ILGRWPDQKLSG, the growth estimate was -0.243.

As for SGNAKECFRHGLFVIRVEAA, the growth estimate was less than -0.25.

Turning to DFLESSYSAGHSPELALQTA, the growth estimate is less than -0.25.

Regarding CASLERHLRFQSNPQTRRPS, the growth estimate was -0.241.

For the substance RLHGRGDPSYAAMGGTCVVK, the growth estimate was less than -0.25.

Regarding TIVRDTLTLCGERNGMMCQF, the growth estimate is less than -0.25.

Turning to YQYRYR, the growth estimate was -0.245.

For the substance STEPKVVRSNYDRAERIWPG, the growth estimate is less than -0.25.

In the case of FCSWLIGACERLTNGGSRPG, the growth estimate was less than -0.25.

As to GRQRARQIRG, the growth estimate was less than -0.25.

As to YGFVGVTSRCLGAKRLLIHA, the growth estimate was less than -0.25.

Regarding TTDL, the growth estimate is less than -0.25.

With VVLYYSLGFGN, the growth estimate was less than -0.25.

In the case of FVEAEMVISVEFGLWL, the growth estimate is less than -0.25.

RMYLNPRSILVFTCEAM: the growth estimate was less than -0.25.

For the substance LCEVAHDNVSSDS, the growth estimate was less than -0.25.

LTRVPRRVHEGTTCTTESVP: the growth estimate is less than -0.25.

Regarding KRDSN, the growth estimate is less than -0.25.

As for GLVAAFWNNFLCEKGGTKIL, the growth estimate is less than -0.25.

As for KYKPRFPIRPIVEYSVYNQA, the growth estimate is less than -0.25.

Turning to PQAFDRGLLFP, the growth estimate is -0.245.

For PALGEPKSSRGCECFHCPLD, the growth estimate was less than -0.25.

As to RVAVGMHGIDIGRGDGGTCL, the growth estimate was less than -0.25.

For DGLG, the growth estimate is less than -0.25.

For FLGSLRYSRSKYGTPSVEQA, the growth estimate is less than -0.25.

Regarding DSVRYPPDSQQPS, the growth estimate was less than -0.25.

Consider STSLRDPRFAGQLSDMFRLA, for which the growth estimate was less than -0.25.

As for NRTYSHASVHISFIWLYITV, the growth estimate is less than -0.25.

ENEYTRSDHTSSEPGLPGLC: the growth estimate was less than -0.25.

LRRHIRMVD: the growth estimate is less than -0.25.

Take SAGRQLTLSTFAPN: the growth estimate is less than -0.25.

PPASPQWVGSRRCAKASRPM: the growth estimate was less than -0.25.

Consider ELWGT, for which the growth estimate is less than -0.25.

As to PPVWRPCLTSICLKVHSYGP, the growth estimate is less than -0.25.

On to GKGCSYRAYYSRLYRPRRGL, for which the growth estimate is less than -0.25.

Consider CLEFAG, for which the growth estimate is less than -0.25.

With EELHPNYCGMNHPDWDG, the growth estimate is less than -0.25.

For the substance GPLTEN, the growth estimate was less than -0.25.
